Reference: USRE45272E1, “β-glucuronide-linker drug conjugates” (priority 2005, dated 2014)
Some entries share one result that the patent states for a list of compounds. For at least one compound, name, drawing or mass did not settle the structure. Square brackets hold non-standard residues; d marks the D form. Peptide text beside a SMILES is read from it. * marks the point of attachment. Dolaproine = CO[C@@H]([C@@H]1CCCN1)[C@@H](C)C(=O)O; Dil = CC[C@H](C)[C@H](NC)[C@@H](CC(=O)O)OC; X1 = C[C@@H](N*)[C@@H](O)c1ccccc1; NMeV = CN[C@H](C(=O)O)C(C)C

Test system: Caki-1, 786-O and Karpas 299 cell lines
Experiment: In vitro cytotoxicity, statements across Caki-1, 786-O and Karpas 299
Assay type: cell-based
Conditions: statement for all three cell lines
Description: In vitro growth inhibition. Cells were collected and plated in 96 well black-sided plates at a density of 10,000 cells/well in 150 μL of medium. Serial dilutions of the ADC (50 μL) were added, and incubation was carried out for 92 h at 37° C. After addition of ADC, cultures were incubated to 96 h at 37° C. Resazurin (0.25 mM, 50 μL, Sigma, St. Louis, Mo.) in medium was added and incubation was continued for 4 h. The plates were read on a Fusion HT microplate reader (Packard, Meriden, Conn.) using an excitation wavelength of 525 nm and an emission wavelength of 590 nm. Data from all assays were reduced using GraphPad Prism Version 4 for Windows (GraphPad Software, San Diego, Calif.). The IC50 concentrations compared to untreated control cells were determined using a 4 parameter curve fits.
Results. […] The negative charge associated with the carboxylate group of 1b leads to reduced cytotoxic activity, presumably due to impaired intracellular access.
The ADCs of 9b effectively delivered 1b to the targeted cells. […] Conjugates of doxorubicin drug-linker 17 gave the same general profile with effective cell kill on antigen positive cell lines and specificity values >16-fold.

Structure (SMILES): CC[C@H](C)[C@@H]([C@@H](CC(=O)N1CCC[C@H]1[C@H](OC)[C@@H](C)C(=O)N[C@H](C)[C@@H](O)c1ccccc1)OC)N(C)C(=O)[C@@H](NC(=O)[C@@H](NC)C(C)C)C(C)C [Compound 1a, monomethyl auristatin E] (H-[NMeV]V[Dil][Dolaproine]-X1)
- IC50: < 0.2 nM
